Source: patent US20030166056A1, “Transmembrane protein as a downstream target of neurotrophin and ephrin receptor tyrosine kinases, DNA encoding same and monoclonal antibodies thereto” (New York University, priority 2000, published 2003)
Results are given in words; binding and its absence hold for the method and conditions named. Binding seen in cells or lysates may run through a third protein. Some entries that bind do so weakly or less than the wild type.

Amino acid sequences for entries named in this document (tags omitted). A change or cut given only in a name is not applied to a line headed by its entry. Residues count along the entry.
UniProt P35739, residues 33-799: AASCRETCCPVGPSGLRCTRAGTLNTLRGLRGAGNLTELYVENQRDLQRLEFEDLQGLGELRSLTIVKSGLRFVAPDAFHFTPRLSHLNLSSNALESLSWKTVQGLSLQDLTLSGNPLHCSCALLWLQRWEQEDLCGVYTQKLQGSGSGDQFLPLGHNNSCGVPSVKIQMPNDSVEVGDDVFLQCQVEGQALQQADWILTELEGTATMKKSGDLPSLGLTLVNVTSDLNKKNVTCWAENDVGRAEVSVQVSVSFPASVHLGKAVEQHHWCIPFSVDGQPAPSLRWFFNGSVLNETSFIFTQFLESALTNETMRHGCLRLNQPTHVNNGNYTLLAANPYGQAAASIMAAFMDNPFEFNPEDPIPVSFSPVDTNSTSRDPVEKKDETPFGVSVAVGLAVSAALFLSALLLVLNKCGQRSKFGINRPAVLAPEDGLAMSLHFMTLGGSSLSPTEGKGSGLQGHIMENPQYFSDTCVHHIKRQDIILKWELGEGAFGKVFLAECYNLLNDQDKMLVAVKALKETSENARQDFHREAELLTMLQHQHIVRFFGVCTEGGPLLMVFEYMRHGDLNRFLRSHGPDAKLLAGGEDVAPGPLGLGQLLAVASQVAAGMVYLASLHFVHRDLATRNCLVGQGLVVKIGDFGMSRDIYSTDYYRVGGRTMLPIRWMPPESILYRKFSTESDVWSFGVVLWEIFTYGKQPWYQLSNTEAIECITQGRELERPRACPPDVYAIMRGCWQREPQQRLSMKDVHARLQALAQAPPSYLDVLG
UniProt P07174, residues 30-425: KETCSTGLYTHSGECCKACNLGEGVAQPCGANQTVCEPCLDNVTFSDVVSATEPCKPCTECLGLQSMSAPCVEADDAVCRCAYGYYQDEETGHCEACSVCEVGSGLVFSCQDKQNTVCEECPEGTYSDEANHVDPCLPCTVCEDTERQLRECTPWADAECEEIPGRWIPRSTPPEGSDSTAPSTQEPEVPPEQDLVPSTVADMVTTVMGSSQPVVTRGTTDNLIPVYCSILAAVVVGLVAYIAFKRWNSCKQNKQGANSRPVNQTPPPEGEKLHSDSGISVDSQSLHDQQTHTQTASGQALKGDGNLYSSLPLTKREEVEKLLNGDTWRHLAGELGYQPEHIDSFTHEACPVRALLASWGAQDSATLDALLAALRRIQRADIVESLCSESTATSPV
UniProt Q9EQG6: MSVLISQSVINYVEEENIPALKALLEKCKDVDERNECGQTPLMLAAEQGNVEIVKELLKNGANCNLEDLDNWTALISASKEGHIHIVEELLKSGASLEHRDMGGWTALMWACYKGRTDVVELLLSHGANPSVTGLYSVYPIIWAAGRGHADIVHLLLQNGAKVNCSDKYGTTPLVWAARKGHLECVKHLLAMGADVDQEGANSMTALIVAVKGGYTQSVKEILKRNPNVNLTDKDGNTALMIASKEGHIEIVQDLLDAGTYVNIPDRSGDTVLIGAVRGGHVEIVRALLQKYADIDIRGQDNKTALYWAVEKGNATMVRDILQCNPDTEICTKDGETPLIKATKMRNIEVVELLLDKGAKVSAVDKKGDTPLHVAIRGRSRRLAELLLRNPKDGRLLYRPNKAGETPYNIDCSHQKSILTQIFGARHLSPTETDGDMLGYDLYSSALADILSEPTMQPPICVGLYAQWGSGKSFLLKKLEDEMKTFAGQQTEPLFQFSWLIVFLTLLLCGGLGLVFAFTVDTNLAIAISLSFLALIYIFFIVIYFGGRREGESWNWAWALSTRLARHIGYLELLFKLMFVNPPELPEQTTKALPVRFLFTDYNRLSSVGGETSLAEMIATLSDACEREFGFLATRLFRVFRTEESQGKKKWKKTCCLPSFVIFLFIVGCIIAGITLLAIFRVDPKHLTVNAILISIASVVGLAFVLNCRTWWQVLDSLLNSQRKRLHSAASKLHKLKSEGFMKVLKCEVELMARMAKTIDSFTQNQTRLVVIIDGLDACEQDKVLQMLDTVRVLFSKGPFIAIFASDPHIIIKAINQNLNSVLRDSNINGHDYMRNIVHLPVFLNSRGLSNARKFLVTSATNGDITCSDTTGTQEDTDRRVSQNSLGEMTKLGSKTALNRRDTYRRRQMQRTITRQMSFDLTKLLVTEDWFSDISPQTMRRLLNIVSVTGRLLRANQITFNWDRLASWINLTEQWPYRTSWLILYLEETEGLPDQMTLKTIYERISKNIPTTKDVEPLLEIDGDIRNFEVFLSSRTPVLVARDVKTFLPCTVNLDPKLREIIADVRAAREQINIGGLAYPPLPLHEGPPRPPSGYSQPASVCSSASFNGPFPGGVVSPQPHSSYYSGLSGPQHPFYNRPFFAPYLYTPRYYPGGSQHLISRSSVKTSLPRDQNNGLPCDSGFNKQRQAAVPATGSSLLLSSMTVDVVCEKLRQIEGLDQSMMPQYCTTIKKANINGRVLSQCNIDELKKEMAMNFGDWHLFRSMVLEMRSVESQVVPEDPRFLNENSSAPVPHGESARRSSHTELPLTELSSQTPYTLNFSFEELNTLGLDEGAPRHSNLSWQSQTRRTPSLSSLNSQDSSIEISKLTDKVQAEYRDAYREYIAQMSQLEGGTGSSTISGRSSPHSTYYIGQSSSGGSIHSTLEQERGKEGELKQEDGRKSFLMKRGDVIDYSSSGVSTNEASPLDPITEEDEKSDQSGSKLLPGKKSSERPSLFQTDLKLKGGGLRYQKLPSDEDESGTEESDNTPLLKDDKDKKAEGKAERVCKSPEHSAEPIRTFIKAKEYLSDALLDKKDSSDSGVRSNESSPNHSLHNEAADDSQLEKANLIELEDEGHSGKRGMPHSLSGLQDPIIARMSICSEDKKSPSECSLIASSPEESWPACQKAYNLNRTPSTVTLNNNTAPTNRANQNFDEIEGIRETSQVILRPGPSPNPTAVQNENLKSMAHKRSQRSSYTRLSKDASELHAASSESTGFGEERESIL

Key:
[1] = target: TrkA receptor, full length cDNA transfected into HEK293 cells (rat) (UniProt P35739); test: co-immunoprecipitation from transfected HEK293 cells (Flag agarose-conjugated antibody), Western blot
[2] = target: rat HA-tagged p75 neurotrophin receptor (rat) (UniProt P07174); test: co-immunoprecipitation from co-transfected HEK293T cells (IP with anti-ARMS 892, immunoblot with anti-HA)
[3] = target: TrkA receptor, full length cDNA transfected into HEK293 cells (rat) (UniProt P35739); test: co-immunoprecipitation (Example 1 and FIGS. 15A and 15B)

binding [1]: binds | binding [2]: binds | binding [3]: binds
Substance: ARMS (Ankyrin Repeat-rich, Membrane Spanning) protein, rat, full length (from UniProt Q9EQG6 1-1762)
